42 sequences from PMC7819943, “Rice protein-binding microarrays: a tool to detect cis-acting elements near promoter regions in rice” can be followed below.

This is one part of the list.

The experiment addresses T1, OsSMF1 (Oryza sativa, UniProt Q6ZLB0 1-436).
T1 sequence: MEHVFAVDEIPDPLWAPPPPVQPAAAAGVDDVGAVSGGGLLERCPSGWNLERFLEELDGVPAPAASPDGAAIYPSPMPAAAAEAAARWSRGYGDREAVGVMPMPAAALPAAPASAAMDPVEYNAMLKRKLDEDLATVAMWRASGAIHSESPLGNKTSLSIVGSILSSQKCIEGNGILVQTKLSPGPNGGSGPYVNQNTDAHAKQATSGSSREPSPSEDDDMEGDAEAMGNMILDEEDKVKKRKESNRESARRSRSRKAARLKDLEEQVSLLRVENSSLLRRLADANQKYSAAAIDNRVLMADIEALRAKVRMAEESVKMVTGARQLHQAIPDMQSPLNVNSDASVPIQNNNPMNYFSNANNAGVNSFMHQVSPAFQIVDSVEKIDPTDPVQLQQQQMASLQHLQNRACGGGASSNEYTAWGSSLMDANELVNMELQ
The experiment is described as follows: protein-binding microarray (RPBM); PBS, 2% BSA, 51.3 ng/ul salmon testes DNA, 50 uM zinc acetate, 200 nM TF, 25 C, 1 h; high values mean tight binding. To be noted: protein: recombinant; tags: N-terminal polyhistidine and DsRed monomer fusion (pET32a); chain copies: 2; label: CyDye5-dUTP incorporated in the synthesized complementary strand; 3' TTTTT single-stranded linker to array surface; dsDNA, one strand shown. Put shortly: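 The binding signal for each feature is its fluorescence intensity in arbitrary units. An Axon 4000B scanner was used to read a custom Agilent array that had been made double-stranded with Cy5-dUTP primer extension, blocked with 2% BSA, incubated at 25 °C for 1 h with 200 nM protein in PBS, 2% BSA, salmon testes DNA and 50 µM zinc acetate, and washed. The protein was an N-terminal polyhistidine–DsRed transcription factor fusion from E. coli BL21-CodonPlus, purified on Ni–NTA.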
As to “TTAATTTGCTGATGTCTCTGCCATGGCACCATGGCAAGATCGGAGTCACCTAGTGCAG”, the binding signal was 4380 fluorescence intensity (a.u.).
Turning to “TCTCACAATACACCATTAGATGGGCTATCATCTCTGTTCGCGGAGTCACCTAGTGCAG”, the binding signal was 3320 fluorescence intensity (a.u.).
Take “TAAGTACAGTTTTACACTATTCACGTCCAACGTTTGACCGCGGAGTCACCTAGTGCAG”: the binding signal was 4980 fluorescence intensity (a.u.).
Regarding “CACTTCCAAATGAGCACCAAGCTGTACCGACAATCTGGCACGGAGTCACCTAGTGCAG”, the binding signal was 25200 fluorescence intensity (a.u.).
As to “CTACACGATTGATACCTACAGCCACGCCGTCGAATCCGTTCGGAGTCACCTAGTGCAG”, the binding signal is 3730 fluorescence intensity (a.u.).
To “CGGGCCCCTTCTTCGTCGCCGCGCTCCGCCTCCTCCCCGCCGGAGTCACCTAGTGCAG” belongs 9750 fluorescence intensity (a.u.).
As to “TATTTCTGTCCACGATGGTATTTTGACTAAGATGCACTAGCGGAGTCACCTAGTGCAG”, the binding signal was 5150 fluorescence intensity (a.u.).
“AAACTAGCCACGTTGGCGCCACGTCAGCCAAAACCGCCTTCGGAGTCACCTAGTGCAG”: the binding signal is 33700 fluorescence intensity (a.u.).
With “GGGCCCCACGCTCTGATCCCATAACCAACAATTATGCAGGCGGAGTCACCTAGTGCAG”, the binding signal is 3850 fluorescence intensity (a.u.).
Consider “ACTAATTACACGTCAGCTTGCTTAGCCGCGTCGCGCTGCTCGGAGTCACCTAGTGCAG”, for which the binding signal is 30400 fluorescence intensity (a.u.).
Regarding “CTTATTGTAGTTCAGTTCTTGGGAGGGGAGGACAAGGCAGCGGAGTCACCTAGTGCAG”, the binding signal is 3380 fluorescence intensity (a.u.).
“GCTCATATGACTATACTGTGCTTTTATAAAGTGCAAATGCCGGAGTCACCTAGTGCAG”: the binding signal is 3300 fluorescence intensity (a.u.).
Consider “CTCTTCCTCCGCACGCCGCCGCAGACCGGATCCACGTAGCCGGAGTCACCTAGTGCAG”, for which the binding signal was 4410 fluorescence intensity (a.u.).
“TTCTCATAGGCTACGATGGCACTTGCGGCGTCACCGAGGGCGGAGTCACCTAGTGCAG”: the binding signal was 4170 fluorescence intensity (a.u.).
On to “ATTTCCAGTAGCTCTACTGATCATCACTGGGTGACATGGTCGGAGTCACCTAGTGCAG”, for which the binding signal is 3200 fluorescence intensity (a.u.).
With “GTGGTTTATAAAATTATGTCATCGTGTTGCTCGCCTCTCGCGGAGTCACCTAGTGCAG”, the binding signal is 4680 fluorescence intensity (a.u.).
For “GGCGGATGAAGAGAGCGCAACACGTGGTAGCATAATTTTGCGGAGTCACCTAGTGCAG”, the binding signal was 5380 fluorescence intensity (a.u.).
On to “TTCATCCGCTGTTCGGATGATTTCTGACTAGTGCAAGAGGCGGAGTCACCTAGTGCAG”, for which the binding signal is 3300 fluorescence intensity (a.u.).
Regarding “CATCCGTCGCTTCGCTTTCGTTCGAACGCGTTGGACCCAGCGGAGTCACCTAGTGCAG”, the binding signal is 3160 fluorescence intensity (a.u.).
Consider “CTTTCTAATGTGTCAGCTACATTTCTGAATAAATAAATTCCGGAGTCACCTAGTGCAG”, for which the binding signal is 3650 fluorescence intensity (a.u.).
In the case of “CTAGATTTTGCCAGAGCTGCGTTTGCTGGCGAATGTCCATCGGAGTCACCTAGTGCAG”, the binding signal was 3270 fluorescence intensity (a.u.).
For the sequence “ACCTGTTTGCACCAACACACGTACGCGTGCAGATGAACGACGGAGTCACCTAGTGCAG”, the binding signal is 4190 fluorescence intensity (a.u.).
Turning to “CTGGGCCCTCGTGCTGCTCTTCTCATGTCACCACCGCCGGCGGAGTCACCTAGTGCAG”, the binding signal was 3810 fluorescence intensity (a.u.).
For the sequence “CTTACTTGAAAACACTATTTGCTCTCCTAATGGAACACAGCGGAGTCACCTAGTGCAG”, the binding signal is 18000 fluorescence intensity (a.u.).
To “ACGCCGCCGCCGGCATCCCTGACTCACCGACGCGGCTGCACGGAGTCACCTAGTGCAG” belongs 8230 fluorescence intensity (a.u.); to “TCCGAGTCGTACTGTTCACTGGTCCAGTAGCTGATGCTGGCGGAGTCACCTAGTGCAG”, 3610 fluorescence intensity (a.u.).
To “TCATAACCAAAACCGTGAGTCGACGTCAGCTTGCCCAGCACGGAGTCACCTAGTGCAG” belongs 4900 fluorescence intensity (a.u.).
For the sequence “TTTTGTAAGACGTGGATTTGTTTATCAAATTATCGTTTGTCGGAGTCACCTAGTGCAG”, the binding signal was 5820 fluorescence intensity (a.u.).
As to “GATGAGGGTGGGGCAAAGGGTCTCTTGTCATATAACCTCGCGGAGTCACCTAGTGCAG”, the binding signal was 3500 fluorescence intensity (a.u.).
For the sequence “ATTTACTGGTGGAATTTTGGTATGCATCACCTCGTAATCCCGGAGTCACCTAGTGCAG”, the binding signal is 3560 fluorescence intensity (a.u.).
For “AGAGAGAGAGAGGGTTCCAGAATGCAGCAGAGAGGTAGGGCGGAGTCACCTAGTGCAG”, the binding signal is 3480 fluorescence intensity (a.u.).
In the case of “TATCCTTCCACCTAGACTACATTAGCCTCTGCTAGCCTAACGGAGTCACCTAGTGCAG” it was 3560 fluorescence intensity (a.u.); in that of “AAAACAGAGGGACCCACGTGGGCCCCACCTGTCATCCTCGCGGAGTCACCTAGTGCAG”, 8590 fluorescence intensity (a.u.).
In the case of “GGATCAGGTGGAGGAATAGCGATGGGAGGGGTGGTGGTTGCGGAGTCACCTAGTGCAG” it was 4280 fluorescence intensity (a.u.); in that of “TATTCTTCTTGCCACGTAAACACCTAGTCAGCATGAGTGACGGAGTCACCTAGTGCAG”, 16700 fluorescence intensity (a.u.); in that of “ACCAATCAGTATCAGGCCGTCGACTTGTTCAGTGCAGCTGCGGAGTCACCTAGTGCAG”, 3560 fluorescence intensity (a.u.).
For “TCTTTGTGCCCACCTGGTTTCAGGTCAGGTTAGGTGACAGCGGAGTCACCTAGTGCAG”, the binding signal is 4560 fluorescence intensity (a.u.).
To “TAAGTTAATTTTGTTCCGTATGATTACAGTGACGGAATAGCGGAGTCACCTAGTGCAG” belongs 3150 fluorescence intensity (a.u.); to “TGACCAAGTAACTTGAGTTGGAAGGTACTACGGCATATTGCGGAGTCACCTAGTGCAG”, 3240 fluorescence intensity (a.u.); to “GTAGTGGCCCACCCGTCACTGTGTTCGTAGCAGGCGACTGCGGAGTCACCTAGTGCAG”, 4150 fluorescence intensity (a.u.).
With “GAGTGGGGACCAGATGAGCGAACAGGCGTGGACCCCAATGCGGAGTCACCTAGTGCAG”, the binding signal was 3240 fluorescence intensity (a.u.).
Consider “ACTCCAAAAGCACCAGAAGTTTGTCATGGCTGAGTCATGACGGAGTCACCTAGTGCAG”, for which the binding signal is 10200 fluorescence intensity (a.u.).
